{"source": "patent US7888367B2", "about": "“1-[2′,3′ -dideoxy-3′ C-(hydroxymethyl)—beta-D-erythro-pentofuranosyl] cytosine derivatives as HIV” (Medivir AB, priority 2005, dated 2011)", "key": {"[1]": {"test_system": "HIV-1 TAM primer rescue-related patient isolate 19 (M184V + TAMs)", "experiment": "PhenoSense HIV assay, Example 2b", "format": "cell-based", "description": "(§1) The susceptibility of the compounds of the invention, measured as the plasma metabolite 2′,3′-dideoxy, 3′-C-hydroxymethyl-β-D-erythropentofuranosylcytosine on HIV-1 isolates from patient plasma samples that bear typical TAM primer rescue mutant resistant genotypes is determined by the commercially available PhenoSense HIV assay (described in Petropoulos, C J et al., (2000) Antimicrob. Agents Chemother. 44:920-928 and performed by ViroLogics, Inc). The assay is performed by amplifying the protease (PR)—RT segment of the HIV pol gene from patient plasma and inserting the amplification products into a modified HIV-1 vector derived from an NL4-3 molecular clone.\nViral stocks are prepared by co-transfecting 293 cell cultures with recombinant viral DNA vector and an expression vector that produces the amphotropic murine leukemia virus envelope proteins. Pseudotyped virus particles are harvested from the transfected cell cultures and are used to infect fresh 293 cell cultures. […] Drug susceptibility is measured by adding serial concentrations of the compound of the invention and the reference compounds to the cells. Drugs that inhibit virus replication reduce luciferase signal in a dose-dependent manner, providing a quantitative measure of drug susceptibility. […]"}, "[2]": {"test_system": "HIV-1 primer rescue-related TAM patient isolates 20 and 21", "experiment": "PhenoSense HIV assay, Example 2a", "format": "cell-based", "description": "as §1\nViral stocks are prepared by co-transfecting 293 cell cultures with recombinant viral DNA vector and an expression vector that produces the amphotropic murine leukemia virus envelope proteins. […] Drug susceptibility is measured by adding serial concentrations of the compound of the invention and the reference compounds to the cells. Drugs that inhibit virus replication reduce luciferase signal in a dose-dependent manner, providing a quantitative measure of drug susceptibility.\nWild-type HIV virus is used as the reference. Here, the inhibition of the patient isolate 20 and 21 strains is expressed as the fold change in reduction of susceptibility to the treatment drug as compared to parallel runs of the reference. […]"}}, "note": "For at least one compound, name, drawing or mass did not settle the structure."}
{"smiles": "Nc1ccn([C@@H]2CS[C@H](CO)O2)c(=O)n1", "note": "[Example 3TC, lamivudine]", "values": [{"measurement": "activity against the resistant virus", "setting": "[1]", "value": "lost activity"}, {"measurement": "potency against patient virus compared to wildtype", "setting": "[2]", "value": "lost potency"}]}
